# Laboratory results as given in the supplement of paper PMC4635364.
# Structures can show the parent of a compound that is named as a salt. The list shows a part of the results. This data set is noisy: repeats of one test often differ as much as different tests do.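 Human fetal ventral-midbrain neural progenitor line ReNCell VM, differentiated without mitogens. Images stained for doublecortin (early neurons) or tyrosine hydroxylase (dopaminergic neurons) were scored by blinded raters against untreated wells (0 = no change). Repeats and both raters were averaged, and compounds averaging 2 or higher were picked as hits for retesting.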
# Experiments:
# [1] = tested on: ReNCell VM; test: neuronal differentiation score (DCX+ cell fraction vs untreated, manual image score) (score (-3 to 3)); higher = more neuronal differentiation; details: 2 uM, 2 weeks
# [2] = tested on: ReNCell VM; test: dopaminergic neuron differentiation score (TH+ cell fraction vs untreated, manual image score) (score (0 to 3)); higher = more TH+ dopaminergic neuron differentiation; details: 2 uM, 4 weeks, BDNF 10 ng/ml + GDNF 10 ng/ml
smiles,measurement,setting,value
NC(=O)NO,neuronal differentiation score,[1]; library: Spectrum,inactive: 0
same,dopaminergic neuron differentiation score,[2]; library: Spectrum,inactive: 0
NC1(C(=O)O)CC1 [1-Aminocyclopropanecarboxylic acid hydrochloride],neuronal differentiation score,[1]; library: LOPAC,inactive: 0
same,dopaminergic neuron differentiation score,[2]; library: LOPAC,inactive: 0
Cc1nc2ccc(NC(=O)Nc3ccnc4cccnc34)cc2o1,neuronal differentiation score,[1]; library: Tocriscreen,inactive: 0
same,dopaminergic neuron differentiation score,[2]; library: Tocriscreen,inactive: 0
Cc1c(OCC(F)(F)F)ccnc1C[S@@+]([O-])c1nc2ccccc2[nH]1,neuronal differentiation score,[1]; library: Spectrum,inactive: 0
same,dopaminergic neuron differentiation score,[2]; library: Spectrum,inactive: 0
Cc1cccc(Nc2ccccc2C(=O)O)c1C [Mefenamic acid],neuronal differentiation score,[1]; library: Prestwick,inactive: 0
same,dopaminergic neuron differentiation score,[2]; library: Prestwick,inactive: 0
O=C(O)CCC(=O)Nc1ccc(S(=O)(=O)Nc2nccs2)cc1,neuronal differentiation score,[1]; library: Spectrum,inactive: 0
same,dopaminergic neuron differentiation score,[2]; library: Spectrum,inactive: 0
COC(=O)[C@H]1[C@H]2C[C@H]3c4[nH]c5ccccc5c4CCN3C[C@H]2CC[C@@H]1O,neuronal differentiation score,[1]; library: Spectrum,inactive: 0
same,dopaminergic neuron differentiation score,[2]; library: Spectrum,inactive: 0
N#Cc1ccc2[nH]cc(CCCCN3CCN(c4ccc5oc(C(N)=O)cc5c4)CC3)c2c1,neuronal differentiation score,[1]; library: Spectrum,inactive: 0
same,dopaminergic neuron differentiation score,[2]; library: Spectrum,inactive: 0
NCC(O)CC(=O)O (stereo not given),neuronal differentiation score,[1]; library: Spectrum,inactive: 0
same,dopaminergic neuron differentiation score,[2]; library: Spectrum,inactive: 0
CCCCOc1ccc(OCCCN2CCOCC2)cc1 [Pramoxine hydrochloride],neuronal differentiation score,[1]; library: Prestwick,inactive: 0
same,dopaminergic neuron differentiation score,[2]; library: Prestwick,inactive: 0
COc1ccc(C(=O)NCc2cccnc2)cc1C(=O)NCc1cccnc1 [Picotamide monohydrate],neuronal differentiation score,[1]; library: Prestwick,inactive: 0
same,dopaminergic neuron differentiation score,[2]; library: Prestwick,inactive: 0
O=c1cc(N2CCOCC2)oc2c(-c3ccccc3)cccc12,neuronal differentiation score,[1]; library: Tocriscreen,inactive: 0
same,dopaminergic neuron differentiation score,[2]; library: Tocriscreen,inactive: 0
CCCCCCCCCCCCCCCC(=O)OC/C=C(C)/C=C/C=C(C)/C=C/C1=C(C)CCCC1(C)C,neuronal differentiation score,[1]; library: Spectrum,inactive: 0
same,dopaminergic neuron differentiation score,[2]; library: Spectrum,inactive: 0
CN1C(=O)N(C)C2=NNC=NC2(O)C1=O (stereo not given),neuronal differentiation score,[1]; library: Natural,inactive: 0
same,dopaminergic neuron differentiation score,[2]; library: Natural,inactive: 0
C[C@@H]1C(=O)O[C@H]2C[C@@]34[C@H]5C[C@@H](C(C)(C)C)[C@]36[C@@H](OC(=O)[C@@H]6O)O[C@@]4(C(=O)O5)[C@]21O [Ginkgolide A],neuronal differentiation score,[1]; library: Phytochemical,inactive: 0
same,dopaminergic neuron differentiation score,[2]; library: Phytochemical,inactive: 0
C[C@@H](O)[C@H]1C(=O)N2C(C(=O)O)=C(S[C@@H]3CN[C@H](C(=O)N(C)C)C3)[C@H](C)[C@H]12,neuronal differentiation score,[1]; library: Spectrum,inactive: 0
same,dopaminergic neuron differentiation score,[2]; library: Spectrum,inactive: 0
CN(C)CCCOc1nn(Cc2ccccc2)c2ccccc12 [Benzydamine hydrochloride],neuronal differentiation score,[1]; library: Prestwick,inactive: 0
same,dopaminergic neuron differentiation score,[2]; library: Prestwick,inactive: 0
NCCc1cc[nH]n1 [Betazole hydrochloride],neuronal differentiation score,[1]; library: Prestwick,inactive: 0
same,dopaminergic neuron differentiation score,[2]; library: Prestwick,inactive: 0
"COC1=C(OC)C(=O)c2ccccc2C1=O [2,3-Dimethoxy-1,4-naphthoquinone]",neuronal differentiation score,[1]; library: LOPAC,inactive: 0
same,dopaminergic neuron differentiation score,[2]; library: LOPAC,inactive: 0
Cc1cccc(C)c1NC(=O)C1CCCCN1C (stereo not given) [Mepivacaine hydrochloride],neuronal differentiation score,[1]; library: Prestwick,inactive: 0
same,dopaminergic neuron differentiation score,[2]; library: Prestwick,inactive: 0
COc1ccc(-c2cc(=O)c3c(OC(C)=O)cc(OC(C)=O)cc3o2)cc1,neuronal differentiation score,[1]; library: Spectrum,inactive: 0
same,dopaminergic neuron differentiation score,[2]; library: Spectrum,inactive: 0
CCCc1cc(C(N)=S)ccn1 [Prothionamide],neuronal differentiation score,[1]; library: Prestwick,inactive: 0
same,dopaminergic neuron differentiation score,[2]; library: Prestwick,inactive: 0
C[C@@H]1CCC[C@H](C)N1NC(=O)c1ccc(Cl)c(S(N)(=O)=O)c1 [Clopamide],neuronal differentiation score,[1]; library: Prestwick,inactive: 0
same,dopaminergic neuron differentiation score,[2]; library: Prestwick,inactive: 0
CC(C)CC(NC(=O)OCC1c2ccccc2-c2ccccc21)C(=O)O (stereo in doubt),neuronal differentiation score,[1]; library: Spectrum,inactive: 0
same,dopaminergic neuron differentiation score,[2]; library: Spectrum,inactive: 0
C[C@](N)(Cc1ccc(O)cc1)C(=O)O [L-alpha-Methyl-p-tyrosine],neuronal differentiation score,[1]; library: LOPAC,inactive: 0
same,dopaminergic neuron differentiation score,[2]; library: LOPAC,inactive: 0
CCSC(=N)N [S-Ethylisothiourea hydrobromide],neuronal differentiation score,[1]; library: LOPAC,inactive: 0
same,dopaminergic neuron differentiation score,[2]; library: LOPAC,inactive: 0
O=c1cc(-c2ccc(O)cc2)oc2cc(O)cc(O)c12,neuronal differentiation score,[1]; library: Spectrum,inactive: -1
same,dopaminergic neuron differentiation score,[2]; library: Spectrum,inactive: 0
NC[C@H]1O[C@H](O[C@H]2[C@H](O[C@@H]3O[C@H](CO)[C@@H](O)[C@H]3O)[C@@H](O)[C@H](N)C[C@@H]2N)[C@H](N)[C@@H](O)[C@@H]1O [Ribostamycin sulfate salt],neuronal differentiation score,[1]; library: Prestwick,inactive: 0
same,dopaminergic neuron differentiation score,[2]; library: Prestwick,inactive: 0
C=NC(C(=O)NC1C(=O)N2C1SC(C)(C)C2C(=O)O)c1ccccc1 (stereo not given),neuronal differentiation score,[1]; library: Spectrum,inactive: 0
same,dopaminergic neuron differentiation score,[2]; library: Spectrum,inactive: 0
CO[C@H]1C[C@H](O[C@H]2[C@H](C)[C@@H](O[C@@H]3O[C@H](C)C[C@H](N(C)C)[C@H]3O)[C@@H](C)C[C@@]3(CO3)C(=O)[C@H](C)[C@@H](O)[C@@H](C)[C@@H](C)OC(=O)[C@@H]2C)O[C@@H](C)[C@@H]1O,neuronal differentiation score,[1]; library: Spectrum,inactive: 0
same,dopaminergic neuron differentiation score,[2]; library: Spectrum,inactive: 0
O=C(O)c1ccc(C=C2SC(=S)N(c3cccc(C(F)(F)F)c3)C2=O)cc1,neuronal differentiation score,[1]; library: Tocriscreen,inactive: 0
same,dopaminergic neuron differentiation score,[2]; library: Tocriscreen,inactive: 0
CC(=O)N[C@@H](CS)C(=O)O,neuronal differentiation score,[1]; library: Spectrum,inactive: 0
same,dopaminergic neuron differentiation score,[2]; library: Spectrum,inactive: 0
CC1(C)CC2C1CCC1(C)OC1CCC2(C)O (stereo not given),neuronal differentiation score,[1]; library: Spectrum,inactive: 0
same,dopaminergic neuron differentiation score,[2]; library: Spectrum,inactive: 0
COc1ccc([C@@H]2CC(=O)c3c(O)cc(O)cc3O2)cc1O [Hesperetin],neuronal differentiation score,[1]; library: Phytochemical,inactive: 0
same,dopaminergic neuron differentiation score,[2]; library: Phytochemical,inactive: 0
COC(=O)CCc1ccc(OCC(O)CNC(C)C)cc1 (stereo not given) [Esmolol hydrochloride],neuronal differentiation score,[1]; library: Prestwick,inactive: 0
same,dopaminergic neuron differentiation score,[2]; library: Prestwick,inactive: 0

# 16 neighbouring records out of the list so far, for reference:
smiles,measurement,setting,value
N#Cc1ccc2[nH]cc(CCCCN3CCN(c4ccc5oc(C(N)=O)cc5c4)CC3)c2c1,dopaminergic neuron differentiation score,[2]; library: Spectrum,inactive: 0
NCC(O)CC(=O)O (stereo not given),neuronal differentiation score,[1]; library: Spectrum,inactive: 0
same,dopaminergic neuron differentiation score,[2]; library: Spectrum,inactive: 0
CCCCOc1ccc(OCCCN2CCOCC2)cc1 [Pramoxine hydrochloride],neuronal differentiation score,[1]; library: Prestwick,inactive: 0
same,dopaminergic neuron differentiation score,[2]; library: Prestwick,inactive: 0
COc1ccc(C(=O)NCc2cccnc2)cc1C(=O)NCc1cccnc1 [Picotamide monohydrate],neuronal differentiation score,[1]; library: Prestwick,inactive: 0
same,dopaminergic neuron differentiation score,[2]; library: Prestwick,inactive: 0
O=c1cc(N2CCOCC2)oc2c(-c3ccccc3)cccc12,neuronal differentiation score,[1]; library: Tocriscreen,inactive: 0
same,dopaminergic neuron differentiation score,[2]; library: Tocriscreen,inactive: 0
CCCCCCCCCCCCCCCC(=O)OC/C=C(C)/C=C/C=C(C)/C=C/C1=C(C)CCCC1(C)C,neuronal differentiation score,[1]; library: Spectrum,inactive: 0
same,dopaminergic neuron differentiation score,[2]; library: Spectrum,inactive: 0
CN1C(=O)N(C)C2=NNC=NC2(O)C1=O (stereo not given),neuronal differentiation score,[1]; library: Natural,inactive: 0
same,dopaminergic neuron differentiation score,[2]; library: Natural,inactive: 0
C[C@@H]1C(=O)O[C@H]2C[C@@]34[C@H]5C[C@@H](C(C)(C)C)[C@]36[C@@H](OC(=O)[C@@H]6O)O[C@@]4(C(=O)O5)[C@]21O [Ginkgolide A],neuronal differentiation score,[1]; library: Phytochemical,inactive: 0
same,dopaminergic neuron differentiation score,[2]; library: Phytochemical,inactive: 0
C[C@@H](O)[C@H]1C(=O)N2C(C(=O)O)=C(S[C@@H]3CN[C@H](C(=O)N(C)C)C3)[C@H](C)[C@H]12,neuronal differentiation score,[1]; library: Spectrum,inactive: 0
